Source: PMC9814232, “Structural insights into the potency and selectivity of covalent pan-FGFR inhibitors” (Communications Chemistry, 2022)

By UniProt entry, the sequences of proteins in these tests, tags left out. Residues count along the entry.
UniProt P07947, whole entry: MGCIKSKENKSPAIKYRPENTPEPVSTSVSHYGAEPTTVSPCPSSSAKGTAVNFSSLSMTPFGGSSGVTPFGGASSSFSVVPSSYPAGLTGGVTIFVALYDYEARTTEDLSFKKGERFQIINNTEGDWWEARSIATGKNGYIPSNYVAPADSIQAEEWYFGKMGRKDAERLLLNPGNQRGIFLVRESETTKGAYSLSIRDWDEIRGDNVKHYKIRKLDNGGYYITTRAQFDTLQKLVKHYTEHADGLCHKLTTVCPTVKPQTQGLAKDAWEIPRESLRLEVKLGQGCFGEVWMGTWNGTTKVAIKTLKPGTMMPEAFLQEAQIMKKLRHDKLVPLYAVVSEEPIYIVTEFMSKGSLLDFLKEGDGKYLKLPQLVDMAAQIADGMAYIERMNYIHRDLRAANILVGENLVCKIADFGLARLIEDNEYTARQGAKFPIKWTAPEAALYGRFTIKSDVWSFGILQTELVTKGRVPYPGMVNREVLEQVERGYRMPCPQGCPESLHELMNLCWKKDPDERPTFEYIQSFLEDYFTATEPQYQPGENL
UniProt P08631, 247-526: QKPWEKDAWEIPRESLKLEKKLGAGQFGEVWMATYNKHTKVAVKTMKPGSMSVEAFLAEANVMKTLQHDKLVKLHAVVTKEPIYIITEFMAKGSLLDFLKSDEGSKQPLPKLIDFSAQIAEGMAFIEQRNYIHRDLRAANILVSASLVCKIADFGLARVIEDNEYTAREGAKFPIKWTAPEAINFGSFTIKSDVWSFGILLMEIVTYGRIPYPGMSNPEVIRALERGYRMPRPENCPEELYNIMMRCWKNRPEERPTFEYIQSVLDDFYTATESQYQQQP

Key:
SRC = target: T1, SRC (Gallus gallus, UniProt P00523); test: ADP-Glo kinase inhibition assay, SRC; format: biochemical, chicken
T1 construct: chicken SRC (residues 251−533); 6×His (N, cleaved yes); made in house; host or cells: E. coli BL21 (DE3), co-expressed with YOPH
Experimental: (§1) FGFRs, SRC and HCK were prepared as previously described[31]–[33]. Briefly, the kinase domain of human FGFR1 (residues 456−765), FGFR2 (residues 453−770), FGFR3 (residues 450−758), FGFR4 (residues 445−753), chicken SRC (residues 251−533) and human HCK (residues 247−526) were respectively cloned into a modified pET28a expression vector with a N-terminal 6×His tag followed by a PreScission or TEV cleavage site. The mutants, FGFR1(V561M), FGFR2(V564F), FGFR3(V555M), FGFR4(V550L), FGFR4(C477A), SRC(C277A), were introduced by PCR using primers with the desired mutations. The primers were synthesized by Tsingke Biotechnolog Co., Ltd., and the sequences were listed in Supplementary Table 2. Then plasmid was transfected into E. coli BL21 (DE3) cells and co-expressed with YOPH to get the non-phosphorylated proteins. Cells were grown in LB at 37 °C and induced for 16 h with 0.5 mM IPTG at 18 °C. Cells were harvested by centrifugation for next purification. All steps of purification were performed at 4 °C. […]
(§2) The ADP-Glo^TM Kinase Assay Kit (Part No #V9101) was purchased from Promega. […] Finally, […] was measured on a multimode plate reader (Perkin-Elmer) after the addition of detection reagent for half an hour to one hour. IC50 values were determined using a three-parameter log [Inhibitor] versus response model in GraphPad Prism software.

YES = target: T2, YES (Homo sapiens, UniProt P07947); test: ADP-Glo kinase inhibition assay, YES; format: biochemical
T2 construct: purchased Carna 08-175
Experimental: as §1, §2

SRC(C277A) = target: T3, SRC(C277A) (Gallus gallus, UniProt P00523, C277A); test: ADP-Glo kinase inhibition assay, SRC(C277A); format: biochemical, chicken
T3 construct: chicken SRC (residues 251−533); made in house; host or cells: E. coli BL21 (DE3), co-expressed with YOPH
Experimental: as §1, §2

HCK = target: T4, HCK (Homo sapiens, UniProt P08631); test: ADP-Glo kinase inhibition assay, HCK; format: biochemical
T4 construct: human HCK (residues 247−526); 6×His (N, cleaved yes); made in house; host or cells: E. coli BL21 (DE3), co-expressed with YOPH
Experimental: as §1, §2

advanced solid tumors = settings: pretreated patients with advanced solid tumors, phase 1 dose-escalation; cited from earlier work

C=CC(=O)N1CC[C@H](n2nc(C#Cc3cc(OC)cc(OC)c3)c3c(N)ncnc32)C1 [TAS-120]
IC50 (SRC): 1670 nM | IC50 (YES): 1630 nM | IC50 (SRC(C277A)): > 5000 nM | potency against SRC(C277A) (in words) (SRC(C277A); kinase assay): lost their potency | IC50 (HCK): > 5000 nM | activity in patients (in words) (advanced solid tumors): promising activity
